These are yes or no findings as the source states them, for the method shown. Binding seen in cells or lysates may run through a third protein. Some entries that bind do so weakly or less than the wild type. Tags and fused reporters may be left off the sequences shown.

Amino acid sequences for entries named in this document (tags omitted).
UniProt Q8K0V4: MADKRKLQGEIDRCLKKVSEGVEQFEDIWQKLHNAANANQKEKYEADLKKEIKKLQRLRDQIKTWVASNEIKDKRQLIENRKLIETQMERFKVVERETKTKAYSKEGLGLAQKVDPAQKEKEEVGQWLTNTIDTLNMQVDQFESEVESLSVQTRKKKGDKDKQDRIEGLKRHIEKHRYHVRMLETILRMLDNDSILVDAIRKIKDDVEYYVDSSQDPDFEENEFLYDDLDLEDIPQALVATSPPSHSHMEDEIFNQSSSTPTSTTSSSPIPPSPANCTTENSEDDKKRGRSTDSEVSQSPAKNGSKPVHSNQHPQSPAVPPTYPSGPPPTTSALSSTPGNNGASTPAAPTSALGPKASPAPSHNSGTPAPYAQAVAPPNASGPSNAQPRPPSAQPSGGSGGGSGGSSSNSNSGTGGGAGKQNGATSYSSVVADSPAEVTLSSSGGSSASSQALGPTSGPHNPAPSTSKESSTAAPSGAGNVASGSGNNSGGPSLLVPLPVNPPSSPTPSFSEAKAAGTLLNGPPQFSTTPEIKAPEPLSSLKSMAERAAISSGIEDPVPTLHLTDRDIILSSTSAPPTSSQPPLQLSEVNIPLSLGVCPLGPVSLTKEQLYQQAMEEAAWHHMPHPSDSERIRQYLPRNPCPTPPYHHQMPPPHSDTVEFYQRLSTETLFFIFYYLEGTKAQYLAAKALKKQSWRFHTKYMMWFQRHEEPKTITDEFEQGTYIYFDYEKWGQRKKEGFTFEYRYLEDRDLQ
UniProt A5YKK6: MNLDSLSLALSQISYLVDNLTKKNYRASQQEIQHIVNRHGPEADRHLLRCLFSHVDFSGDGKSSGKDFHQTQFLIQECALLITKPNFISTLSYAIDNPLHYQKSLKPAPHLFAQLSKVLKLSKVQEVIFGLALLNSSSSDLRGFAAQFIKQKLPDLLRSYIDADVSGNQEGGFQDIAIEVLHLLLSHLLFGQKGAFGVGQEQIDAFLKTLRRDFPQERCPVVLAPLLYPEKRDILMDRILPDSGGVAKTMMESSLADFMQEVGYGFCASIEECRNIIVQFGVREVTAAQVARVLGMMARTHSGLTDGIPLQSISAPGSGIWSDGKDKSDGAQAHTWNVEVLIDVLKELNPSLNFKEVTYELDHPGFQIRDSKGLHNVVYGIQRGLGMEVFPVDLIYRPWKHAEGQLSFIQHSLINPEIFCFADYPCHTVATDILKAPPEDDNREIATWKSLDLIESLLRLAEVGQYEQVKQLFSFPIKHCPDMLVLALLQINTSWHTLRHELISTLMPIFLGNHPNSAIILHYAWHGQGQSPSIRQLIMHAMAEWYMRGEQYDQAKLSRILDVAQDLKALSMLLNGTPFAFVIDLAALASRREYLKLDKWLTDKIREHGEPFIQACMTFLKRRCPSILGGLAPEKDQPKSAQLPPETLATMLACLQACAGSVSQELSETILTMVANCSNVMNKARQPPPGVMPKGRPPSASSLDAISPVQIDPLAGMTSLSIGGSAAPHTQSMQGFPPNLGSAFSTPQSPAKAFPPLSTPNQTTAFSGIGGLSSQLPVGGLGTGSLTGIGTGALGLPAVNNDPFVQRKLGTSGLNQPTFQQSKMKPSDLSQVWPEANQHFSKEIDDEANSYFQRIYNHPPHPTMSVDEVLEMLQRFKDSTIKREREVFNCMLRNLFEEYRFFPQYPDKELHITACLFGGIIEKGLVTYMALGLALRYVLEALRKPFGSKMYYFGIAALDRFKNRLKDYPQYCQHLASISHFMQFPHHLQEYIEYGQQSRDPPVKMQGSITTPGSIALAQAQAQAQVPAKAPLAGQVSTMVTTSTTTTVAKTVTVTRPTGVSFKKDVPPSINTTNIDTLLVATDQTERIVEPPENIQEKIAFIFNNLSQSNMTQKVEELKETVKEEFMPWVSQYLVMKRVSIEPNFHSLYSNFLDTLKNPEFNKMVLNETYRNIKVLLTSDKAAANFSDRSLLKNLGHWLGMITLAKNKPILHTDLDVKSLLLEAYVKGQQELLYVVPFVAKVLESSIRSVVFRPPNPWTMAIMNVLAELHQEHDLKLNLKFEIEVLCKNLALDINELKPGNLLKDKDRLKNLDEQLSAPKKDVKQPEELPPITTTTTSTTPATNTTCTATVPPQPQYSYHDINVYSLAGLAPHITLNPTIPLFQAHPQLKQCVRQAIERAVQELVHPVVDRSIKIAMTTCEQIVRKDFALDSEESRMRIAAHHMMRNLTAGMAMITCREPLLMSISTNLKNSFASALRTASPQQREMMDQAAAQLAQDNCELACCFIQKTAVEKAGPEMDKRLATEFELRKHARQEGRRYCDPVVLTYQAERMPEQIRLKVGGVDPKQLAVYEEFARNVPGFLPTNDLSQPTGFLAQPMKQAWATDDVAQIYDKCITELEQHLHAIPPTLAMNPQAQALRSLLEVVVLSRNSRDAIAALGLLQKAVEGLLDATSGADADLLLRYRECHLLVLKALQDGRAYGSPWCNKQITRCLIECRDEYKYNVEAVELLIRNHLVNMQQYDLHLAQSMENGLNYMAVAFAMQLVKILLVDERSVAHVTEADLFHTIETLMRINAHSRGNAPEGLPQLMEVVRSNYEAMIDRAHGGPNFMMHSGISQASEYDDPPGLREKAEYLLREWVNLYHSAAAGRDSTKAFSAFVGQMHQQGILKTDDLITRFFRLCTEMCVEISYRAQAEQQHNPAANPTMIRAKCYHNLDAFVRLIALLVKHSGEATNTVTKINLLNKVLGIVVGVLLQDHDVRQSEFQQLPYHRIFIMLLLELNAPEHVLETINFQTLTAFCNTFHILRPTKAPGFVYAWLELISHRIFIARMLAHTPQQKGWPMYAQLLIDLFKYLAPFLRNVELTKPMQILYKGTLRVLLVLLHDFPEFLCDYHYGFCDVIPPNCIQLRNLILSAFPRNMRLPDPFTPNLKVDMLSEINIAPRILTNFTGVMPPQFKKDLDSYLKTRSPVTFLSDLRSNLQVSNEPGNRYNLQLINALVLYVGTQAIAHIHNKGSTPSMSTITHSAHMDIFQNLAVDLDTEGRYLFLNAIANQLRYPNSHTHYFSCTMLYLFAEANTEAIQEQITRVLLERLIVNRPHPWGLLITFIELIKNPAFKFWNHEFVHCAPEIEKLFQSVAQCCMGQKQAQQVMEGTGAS

The target in the experiment is T1, HA-Bicc1 (WT), hemagglutinin epitope-tagged mouse Bicc1 (mouse) (UniProt Q99MQ1).
T1 sequence: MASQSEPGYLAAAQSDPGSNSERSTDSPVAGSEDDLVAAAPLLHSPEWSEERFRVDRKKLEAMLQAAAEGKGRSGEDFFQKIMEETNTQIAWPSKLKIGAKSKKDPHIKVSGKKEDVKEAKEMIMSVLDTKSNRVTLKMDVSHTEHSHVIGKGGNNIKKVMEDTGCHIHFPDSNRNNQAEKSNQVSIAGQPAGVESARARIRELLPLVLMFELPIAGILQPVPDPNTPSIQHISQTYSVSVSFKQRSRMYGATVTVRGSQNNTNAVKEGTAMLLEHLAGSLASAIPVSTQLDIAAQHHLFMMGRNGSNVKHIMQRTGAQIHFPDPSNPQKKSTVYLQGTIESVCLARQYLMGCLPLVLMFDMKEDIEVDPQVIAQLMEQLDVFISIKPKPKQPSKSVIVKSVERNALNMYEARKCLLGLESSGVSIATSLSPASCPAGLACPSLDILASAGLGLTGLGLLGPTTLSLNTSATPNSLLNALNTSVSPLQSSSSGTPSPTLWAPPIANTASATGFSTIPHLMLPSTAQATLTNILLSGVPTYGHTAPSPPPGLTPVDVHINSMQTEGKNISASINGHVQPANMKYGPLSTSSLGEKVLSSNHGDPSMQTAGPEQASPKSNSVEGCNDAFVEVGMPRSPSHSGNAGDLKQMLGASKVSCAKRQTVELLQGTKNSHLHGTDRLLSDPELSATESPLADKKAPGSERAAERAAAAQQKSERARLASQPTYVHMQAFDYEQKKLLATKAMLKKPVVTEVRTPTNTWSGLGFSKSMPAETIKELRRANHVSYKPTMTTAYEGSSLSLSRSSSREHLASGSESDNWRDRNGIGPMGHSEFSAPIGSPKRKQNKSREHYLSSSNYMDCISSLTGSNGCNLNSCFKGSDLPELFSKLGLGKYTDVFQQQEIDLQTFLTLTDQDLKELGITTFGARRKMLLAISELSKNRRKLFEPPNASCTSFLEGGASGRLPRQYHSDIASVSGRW
Briefly: co-IP; Extracts of transfected HEK293T cells (20 mM Tris-HCl pH 7.4, 2.5 mM MgCl2, 100 mM NaCl, 5% glycerol, 1 mM DTT, 0.05% NP-40) on anti-HA beads, 2.5 h at 4 °C; washes with 200 mM NaCl, 0.1% NP-40; immunoblot with antibodies to HA, Cnot1, FLAG; with or without RNase A (12.5 µg/mL, 10 min RT) before the beads.

As for “Cnot3-Myc-FLAG, mouse Cnot3 (from UniProt Q8K0V4 1-751)”, the binding entry is on record as “binds”.

In the case of “endogenous Cnot1 (from UniProt A5YKK6 1-2376)”, the binding entry is “binds”.

Source of the values: publication PMC8249388.
